# Measured values: article PMC8639990
# Protein sequences, listed by entry. Tags and fused reporters are not part of them.
# UniProt Q61136: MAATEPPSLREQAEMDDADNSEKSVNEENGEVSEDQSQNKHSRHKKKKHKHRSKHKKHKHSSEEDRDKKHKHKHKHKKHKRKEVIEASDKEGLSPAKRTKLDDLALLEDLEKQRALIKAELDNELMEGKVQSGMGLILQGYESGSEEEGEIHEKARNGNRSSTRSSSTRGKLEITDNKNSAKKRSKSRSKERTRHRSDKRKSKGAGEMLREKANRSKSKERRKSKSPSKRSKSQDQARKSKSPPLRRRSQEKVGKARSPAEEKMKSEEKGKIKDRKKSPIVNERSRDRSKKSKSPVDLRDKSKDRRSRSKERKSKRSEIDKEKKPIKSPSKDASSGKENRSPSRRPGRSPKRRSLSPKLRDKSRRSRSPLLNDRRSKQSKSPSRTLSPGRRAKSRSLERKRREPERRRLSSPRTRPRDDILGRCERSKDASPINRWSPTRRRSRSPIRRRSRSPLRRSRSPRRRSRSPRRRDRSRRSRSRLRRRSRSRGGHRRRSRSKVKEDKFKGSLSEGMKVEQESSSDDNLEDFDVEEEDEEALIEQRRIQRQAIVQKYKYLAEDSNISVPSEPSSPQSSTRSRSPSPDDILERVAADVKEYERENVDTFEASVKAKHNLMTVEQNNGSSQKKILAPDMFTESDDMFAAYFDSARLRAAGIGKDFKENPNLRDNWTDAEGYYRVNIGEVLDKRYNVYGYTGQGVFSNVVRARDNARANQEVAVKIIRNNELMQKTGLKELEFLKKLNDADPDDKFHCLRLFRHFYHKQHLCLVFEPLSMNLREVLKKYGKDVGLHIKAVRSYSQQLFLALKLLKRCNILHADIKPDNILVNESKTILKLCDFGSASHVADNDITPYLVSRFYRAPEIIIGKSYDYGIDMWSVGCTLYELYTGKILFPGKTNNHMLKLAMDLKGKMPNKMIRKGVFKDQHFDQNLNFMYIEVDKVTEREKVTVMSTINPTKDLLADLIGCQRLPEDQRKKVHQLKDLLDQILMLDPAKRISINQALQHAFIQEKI
# UniProt Q8BZQ7: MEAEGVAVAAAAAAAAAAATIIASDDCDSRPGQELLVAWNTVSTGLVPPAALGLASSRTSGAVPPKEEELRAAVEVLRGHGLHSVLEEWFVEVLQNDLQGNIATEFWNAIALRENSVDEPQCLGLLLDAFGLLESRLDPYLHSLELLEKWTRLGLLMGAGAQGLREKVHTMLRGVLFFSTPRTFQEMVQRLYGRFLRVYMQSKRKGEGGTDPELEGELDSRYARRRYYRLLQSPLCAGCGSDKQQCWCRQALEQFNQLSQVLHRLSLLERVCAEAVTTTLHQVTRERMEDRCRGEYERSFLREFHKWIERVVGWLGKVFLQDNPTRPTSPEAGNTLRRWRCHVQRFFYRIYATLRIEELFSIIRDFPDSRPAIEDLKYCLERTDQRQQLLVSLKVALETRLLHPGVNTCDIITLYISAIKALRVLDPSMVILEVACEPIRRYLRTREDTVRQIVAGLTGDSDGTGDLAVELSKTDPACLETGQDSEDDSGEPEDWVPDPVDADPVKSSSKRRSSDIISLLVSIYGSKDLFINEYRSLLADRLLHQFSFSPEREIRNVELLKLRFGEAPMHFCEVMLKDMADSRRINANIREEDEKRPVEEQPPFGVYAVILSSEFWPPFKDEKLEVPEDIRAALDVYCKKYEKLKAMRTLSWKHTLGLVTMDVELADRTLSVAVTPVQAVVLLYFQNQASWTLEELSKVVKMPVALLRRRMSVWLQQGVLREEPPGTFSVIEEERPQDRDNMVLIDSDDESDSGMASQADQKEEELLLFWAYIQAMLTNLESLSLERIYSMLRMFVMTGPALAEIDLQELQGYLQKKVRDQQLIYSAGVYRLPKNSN
# UniProt P53995: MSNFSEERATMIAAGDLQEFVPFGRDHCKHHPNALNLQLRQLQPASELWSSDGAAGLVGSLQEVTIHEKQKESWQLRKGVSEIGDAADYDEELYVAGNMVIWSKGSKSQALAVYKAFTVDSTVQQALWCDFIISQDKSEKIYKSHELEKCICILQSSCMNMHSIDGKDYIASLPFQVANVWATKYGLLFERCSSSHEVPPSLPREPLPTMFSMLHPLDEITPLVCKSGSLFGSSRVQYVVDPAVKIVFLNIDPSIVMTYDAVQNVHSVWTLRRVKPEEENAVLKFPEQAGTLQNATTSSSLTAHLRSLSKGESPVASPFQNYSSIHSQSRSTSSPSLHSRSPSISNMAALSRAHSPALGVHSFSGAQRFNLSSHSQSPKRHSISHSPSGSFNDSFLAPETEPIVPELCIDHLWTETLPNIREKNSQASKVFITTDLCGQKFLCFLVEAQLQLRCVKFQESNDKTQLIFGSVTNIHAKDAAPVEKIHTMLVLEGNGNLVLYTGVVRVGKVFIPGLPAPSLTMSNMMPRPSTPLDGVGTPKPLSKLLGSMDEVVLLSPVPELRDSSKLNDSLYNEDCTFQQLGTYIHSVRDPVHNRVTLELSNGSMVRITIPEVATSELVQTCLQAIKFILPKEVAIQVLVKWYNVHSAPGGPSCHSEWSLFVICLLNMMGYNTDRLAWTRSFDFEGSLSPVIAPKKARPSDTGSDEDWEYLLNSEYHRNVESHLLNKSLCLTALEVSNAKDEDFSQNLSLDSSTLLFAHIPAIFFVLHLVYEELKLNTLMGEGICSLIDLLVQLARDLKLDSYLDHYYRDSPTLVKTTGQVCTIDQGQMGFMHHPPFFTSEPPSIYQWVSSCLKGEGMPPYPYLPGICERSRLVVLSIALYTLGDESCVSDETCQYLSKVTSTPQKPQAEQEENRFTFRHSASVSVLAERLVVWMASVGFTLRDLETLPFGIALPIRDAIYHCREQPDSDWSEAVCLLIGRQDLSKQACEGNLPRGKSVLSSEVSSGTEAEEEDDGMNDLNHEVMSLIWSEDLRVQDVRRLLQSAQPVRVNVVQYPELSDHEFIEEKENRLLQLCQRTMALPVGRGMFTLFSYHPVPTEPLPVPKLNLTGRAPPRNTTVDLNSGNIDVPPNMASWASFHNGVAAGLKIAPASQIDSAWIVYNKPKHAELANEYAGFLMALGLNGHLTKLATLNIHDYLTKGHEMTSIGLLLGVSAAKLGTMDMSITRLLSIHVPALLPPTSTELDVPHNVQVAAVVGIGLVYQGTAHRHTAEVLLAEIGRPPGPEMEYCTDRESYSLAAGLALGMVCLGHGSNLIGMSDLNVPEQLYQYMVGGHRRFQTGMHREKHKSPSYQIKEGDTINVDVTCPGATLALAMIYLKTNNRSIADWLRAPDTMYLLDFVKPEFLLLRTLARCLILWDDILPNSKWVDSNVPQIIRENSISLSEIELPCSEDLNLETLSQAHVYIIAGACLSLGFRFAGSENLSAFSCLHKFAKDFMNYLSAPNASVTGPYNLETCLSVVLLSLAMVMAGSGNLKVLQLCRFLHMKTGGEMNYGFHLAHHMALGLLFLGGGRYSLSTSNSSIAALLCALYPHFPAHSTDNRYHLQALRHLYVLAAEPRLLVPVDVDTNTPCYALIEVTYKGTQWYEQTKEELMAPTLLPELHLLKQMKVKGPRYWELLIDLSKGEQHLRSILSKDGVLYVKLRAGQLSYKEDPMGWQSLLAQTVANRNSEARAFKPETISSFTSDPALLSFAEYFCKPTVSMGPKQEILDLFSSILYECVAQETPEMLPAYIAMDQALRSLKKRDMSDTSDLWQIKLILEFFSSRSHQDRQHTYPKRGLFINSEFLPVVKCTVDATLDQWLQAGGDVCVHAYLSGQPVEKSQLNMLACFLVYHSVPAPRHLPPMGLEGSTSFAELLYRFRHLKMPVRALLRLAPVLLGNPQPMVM
# UniProt Q60974: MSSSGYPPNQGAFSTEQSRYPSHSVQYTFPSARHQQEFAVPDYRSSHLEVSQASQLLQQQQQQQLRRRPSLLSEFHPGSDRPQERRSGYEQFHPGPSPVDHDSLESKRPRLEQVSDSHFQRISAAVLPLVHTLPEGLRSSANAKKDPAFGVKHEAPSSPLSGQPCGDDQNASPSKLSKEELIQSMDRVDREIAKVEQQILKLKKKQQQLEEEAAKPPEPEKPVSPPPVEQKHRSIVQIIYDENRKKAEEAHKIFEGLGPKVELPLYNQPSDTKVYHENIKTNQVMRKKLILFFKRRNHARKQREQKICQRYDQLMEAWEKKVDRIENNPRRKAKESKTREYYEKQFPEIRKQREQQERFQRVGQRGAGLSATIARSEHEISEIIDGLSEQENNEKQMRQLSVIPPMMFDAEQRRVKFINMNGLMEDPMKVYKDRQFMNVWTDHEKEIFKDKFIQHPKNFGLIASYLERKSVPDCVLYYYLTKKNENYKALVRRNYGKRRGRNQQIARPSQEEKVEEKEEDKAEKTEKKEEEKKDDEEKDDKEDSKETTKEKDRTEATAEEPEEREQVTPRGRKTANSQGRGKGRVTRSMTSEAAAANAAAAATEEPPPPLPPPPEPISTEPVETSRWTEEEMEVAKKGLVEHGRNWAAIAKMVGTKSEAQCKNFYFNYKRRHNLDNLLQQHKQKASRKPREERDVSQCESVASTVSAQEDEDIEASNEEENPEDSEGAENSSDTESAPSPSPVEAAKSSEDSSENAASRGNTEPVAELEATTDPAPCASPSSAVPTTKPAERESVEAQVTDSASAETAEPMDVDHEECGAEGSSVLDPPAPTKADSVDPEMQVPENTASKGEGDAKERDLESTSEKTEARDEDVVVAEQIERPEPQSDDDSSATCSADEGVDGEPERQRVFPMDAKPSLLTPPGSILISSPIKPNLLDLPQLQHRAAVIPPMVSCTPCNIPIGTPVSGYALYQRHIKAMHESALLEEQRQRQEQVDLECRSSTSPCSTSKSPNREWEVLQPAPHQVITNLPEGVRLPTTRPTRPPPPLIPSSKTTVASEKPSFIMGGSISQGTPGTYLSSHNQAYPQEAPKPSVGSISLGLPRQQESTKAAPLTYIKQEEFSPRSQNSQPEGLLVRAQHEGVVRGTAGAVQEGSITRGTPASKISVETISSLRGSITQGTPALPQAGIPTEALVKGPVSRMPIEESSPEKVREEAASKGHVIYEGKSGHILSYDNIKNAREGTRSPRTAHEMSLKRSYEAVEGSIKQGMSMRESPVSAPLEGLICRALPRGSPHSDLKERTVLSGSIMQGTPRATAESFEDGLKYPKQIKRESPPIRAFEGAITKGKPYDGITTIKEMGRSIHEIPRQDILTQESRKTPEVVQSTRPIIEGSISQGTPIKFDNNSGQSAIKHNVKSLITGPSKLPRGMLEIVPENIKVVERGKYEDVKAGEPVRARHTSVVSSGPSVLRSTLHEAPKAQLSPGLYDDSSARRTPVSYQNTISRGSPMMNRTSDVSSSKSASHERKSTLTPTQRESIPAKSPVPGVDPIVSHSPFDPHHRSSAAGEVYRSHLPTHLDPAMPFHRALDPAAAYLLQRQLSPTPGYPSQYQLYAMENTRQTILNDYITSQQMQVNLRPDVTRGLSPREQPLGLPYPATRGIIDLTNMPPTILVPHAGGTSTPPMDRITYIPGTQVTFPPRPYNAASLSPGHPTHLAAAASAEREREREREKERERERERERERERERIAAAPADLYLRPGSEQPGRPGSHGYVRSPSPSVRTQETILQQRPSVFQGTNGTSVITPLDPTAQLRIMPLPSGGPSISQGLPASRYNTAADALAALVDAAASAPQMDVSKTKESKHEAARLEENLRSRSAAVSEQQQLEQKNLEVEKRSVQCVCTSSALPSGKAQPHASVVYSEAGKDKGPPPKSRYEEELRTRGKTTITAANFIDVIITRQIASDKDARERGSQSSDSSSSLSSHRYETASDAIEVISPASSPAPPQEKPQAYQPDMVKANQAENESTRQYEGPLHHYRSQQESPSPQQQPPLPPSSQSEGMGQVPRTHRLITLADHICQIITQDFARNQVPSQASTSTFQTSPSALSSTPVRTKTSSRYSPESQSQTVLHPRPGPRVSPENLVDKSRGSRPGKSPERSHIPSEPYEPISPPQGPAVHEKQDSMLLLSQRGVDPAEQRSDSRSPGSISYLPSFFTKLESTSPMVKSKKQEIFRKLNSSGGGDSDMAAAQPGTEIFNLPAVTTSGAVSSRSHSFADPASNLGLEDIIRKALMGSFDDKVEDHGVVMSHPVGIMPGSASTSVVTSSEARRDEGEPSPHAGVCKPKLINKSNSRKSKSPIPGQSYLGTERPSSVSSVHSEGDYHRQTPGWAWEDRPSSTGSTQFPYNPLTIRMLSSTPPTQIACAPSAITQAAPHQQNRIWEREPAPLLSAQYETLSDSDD
# These are yes or no findings as the source states them, for the method shown. In cells and extracts the contact can be indirect. Here binding means that the protein was enriched with, or labelled near, the bait; the list need not be complete. For some of these results: A no says only that the protein was not detected with the bait. For some of these results: Where a sequence is shown, tags or fusion partners need not be part of it.
# T1: V5-tagged SETD5 with deletion of amino acids 437–918 (Δ437–918) (mouse) (UniProt Q5XJV7)
# T1 sequence: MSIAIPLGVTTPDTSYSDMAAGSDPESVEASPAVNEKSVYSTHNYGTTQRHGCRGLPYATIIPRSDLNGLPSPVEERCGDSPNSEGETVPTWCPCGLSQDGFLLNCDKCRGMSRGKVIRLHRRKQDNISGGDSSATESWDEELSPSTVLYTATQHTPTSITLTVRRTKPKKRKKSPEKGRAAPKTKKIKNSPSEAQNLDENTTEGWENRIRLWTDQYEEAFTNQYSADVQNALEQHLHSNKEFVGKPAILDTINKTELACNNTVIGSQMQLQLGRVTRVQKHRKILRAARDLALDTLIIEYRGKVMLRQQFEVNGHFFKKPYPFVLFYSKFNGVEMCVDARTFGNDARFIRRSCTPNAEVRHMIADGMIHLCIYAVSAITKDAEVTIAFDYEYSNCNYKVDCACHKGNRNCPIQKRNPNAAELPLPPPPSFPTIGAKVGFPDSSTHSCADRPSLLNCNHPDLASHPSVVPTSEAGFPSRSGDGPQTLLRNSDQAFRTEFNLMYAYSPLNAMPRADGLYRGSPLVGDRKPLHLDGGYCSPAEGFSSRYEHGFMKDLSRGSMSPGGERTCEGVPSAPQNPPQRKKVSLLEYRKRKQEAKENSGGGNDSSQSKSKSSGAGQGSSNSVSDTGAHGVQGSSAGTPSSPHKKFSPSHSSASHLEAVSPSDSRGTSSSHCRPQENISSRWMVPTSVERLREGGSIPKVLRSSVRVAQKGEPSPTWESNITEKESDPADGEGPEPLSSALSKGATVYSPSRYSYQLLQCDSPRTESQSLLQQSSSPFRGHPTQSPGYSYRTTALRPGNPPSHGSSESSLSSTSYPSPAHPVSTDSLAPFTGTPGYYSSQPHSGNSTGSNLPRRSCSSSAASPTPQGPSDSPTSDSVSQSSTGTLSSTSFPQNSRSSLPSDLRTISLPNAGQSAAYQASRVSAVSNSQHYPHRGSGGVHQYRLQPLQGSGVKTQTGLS
# T2: V5-tagged SETD5 (SET domain-containing 5), wild type (mouse) (UniProt Q5XJV7)
# T2 sequence: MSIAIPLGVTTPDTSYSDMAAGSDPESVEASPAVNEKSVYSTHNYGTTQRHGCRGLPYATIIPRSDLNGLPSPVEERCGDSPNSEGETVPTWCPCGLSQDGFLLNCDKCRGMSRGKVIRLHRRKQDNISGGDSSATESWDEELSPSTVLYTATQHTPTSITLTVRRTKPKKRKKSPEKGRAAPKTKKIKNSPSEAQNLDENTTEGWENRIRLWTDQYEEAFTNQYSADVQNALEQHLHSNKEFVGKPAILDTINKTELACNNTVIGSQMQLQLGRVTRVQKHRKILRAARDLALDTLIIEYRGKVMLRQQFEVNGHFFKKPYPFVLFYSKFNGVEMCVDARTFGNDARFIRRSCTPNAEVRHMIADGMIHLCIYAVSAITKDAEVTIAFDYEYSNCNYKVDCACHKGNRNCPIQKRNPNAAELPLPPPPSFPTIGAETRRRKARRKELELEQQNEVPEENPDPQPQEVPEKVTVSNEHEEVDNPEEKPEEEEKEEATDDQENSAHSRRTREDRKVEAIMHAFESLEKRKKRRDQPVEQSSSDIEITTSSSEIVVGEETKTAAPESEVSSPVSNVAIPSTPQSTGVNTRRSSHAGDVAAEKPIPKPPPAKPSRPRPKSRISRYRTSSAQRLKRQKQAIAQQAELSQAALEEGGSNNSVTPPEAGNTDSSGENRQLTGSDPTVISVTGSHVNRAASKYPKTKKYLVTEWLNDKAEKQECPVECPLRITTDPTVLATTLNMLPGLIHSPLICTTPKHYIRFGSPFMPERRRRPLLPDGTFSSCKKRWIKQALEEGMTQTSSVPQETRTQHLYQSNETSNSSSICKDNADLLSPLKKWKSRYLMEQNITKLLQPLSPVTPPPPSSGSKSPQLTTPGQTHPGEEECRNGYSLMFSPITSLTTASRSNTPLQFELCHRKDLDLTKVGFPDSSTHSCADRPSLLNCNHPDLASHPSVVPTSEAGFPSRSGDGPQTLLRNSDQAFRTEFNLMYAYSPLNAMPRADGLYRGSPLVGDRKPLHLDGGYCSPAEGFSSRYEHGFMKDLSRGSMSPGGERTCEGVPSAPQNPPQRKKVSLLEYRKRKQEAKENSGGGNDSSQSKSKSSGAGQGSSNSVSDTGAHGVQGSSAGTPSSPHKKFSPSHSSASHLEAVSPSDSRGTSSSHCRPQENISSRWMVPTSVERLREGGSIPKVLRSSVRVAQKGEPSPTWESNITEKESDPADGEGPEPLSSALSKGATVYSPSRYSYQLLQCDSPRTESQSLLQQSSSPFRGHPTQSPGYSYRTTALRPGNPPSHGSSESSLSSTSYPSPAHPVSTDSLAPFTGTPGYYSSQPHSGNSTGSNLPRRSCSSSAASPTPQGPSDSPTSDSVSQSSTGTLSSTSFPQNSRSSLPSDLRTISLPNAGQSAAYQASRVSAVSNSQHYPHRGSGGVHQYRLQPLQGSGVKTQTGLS
# Columns and labels:
# Test in all cases: affinity purification with mass spectrometry; nuclear extracts of retrovirally transduced 3T3-L1 preadipocytes (WT-, ΔSET- or Δ437-918-SETD5-V5); anti-V5 antibody cross-linked to Dynabeads protein G, 18 h at 4 °C; washes with 200 mM KCl, 0.1% Nonidet P-40; trypsin digestion, LC/MS/MS
# [1] = molecular target: V5-tagged SET domain deletion mutant (ΔSET) SETD5 (mouse) (UniProt Q5XJV7)
# [2] = molecular target: T1, V5-tagged SETD5 with deletion of amino acids 437–918 (Δ437–918) (mouse)
# [3] = molecular target: T2, V5-tagged SETD5 (SET domain-containing 5), wild type (mouse)
Molecule,binding [1],binding [2],binding [3]
PRP4B (from UniProt Q61136 1-1007),no binding,,binds
ANAPC2 (from UniProt Q8BZQ7 1-837),binds,binds,binds
"TBL1 (also known as TBL1X) (protein, UniProt Q9QXE7 1-527) MSITSDEVNFLVYRYLQESGFSHSAFTFGIESHISQSNINGTLVPPAALISILQKGLQYVEAEISINEDGTVFDGRPIESLSLIDAVMPDVVQTRQQAFREKLAQQQANAAAAAAAAAATATSTAATTPAAAAQQNPPKNGEATVNGEENGAHAINNHSKPMEIDGDVEIPPSKATVLRGHESEVFICAWNPVSDLLASGSGDSTARIWNLNENSNGGSTQLVLRHCIREGGHDVPSNKDVTSLDWNSDGTLLATGSYDGFARIWTEDGNLASTLGQHKGPIFALKWNKKGNYILSAGVDKTTIIWDAHTGEAKQQFPFHSAPALDVDWQNNTTFASCSTDMCIHVCRLGCDRPVKTFQGHTNEVNAIKWDPSGMLLASCSDDMTLKIWSMKQDACVHDLQAHSKEIYTIKWSPTGPATSNPNSNIMLASASFDSTVRLWDVERGVCIHTLTKHQEPVYSVAFSPDGKYLASGSFDKCVHIWNTQSGSLVHSYRGTGGIFEVCWNARGDKVGASASDGSVCVLDLRK",binds,no binding,binds
"PLRG1 (protein, UniProt Q922V4 1-513) MVEEVQKHSVHTLVFRSLKRTHDMFVADNGKPVPLDEESHKRKMAIKLRNEYGPVLHMPTSKENLKEKGPQNATDSYPHKQYPANQGQDVEYLVTGTHPYPAGPGVALTADTKIQRMPSESAAQSLAVALPSQTRVDANRTGPAGSEYRHPGASDRSQPTAMNSIMETGNTKNSALMAKKAPTMPKPQWHPPWKLYRVISGHLGWVRCIAVEPGNQWFVTGSADRTIKIWDLASGKLKLSLTGHISTVRGVIVSTRSPYLFSCGEDKQVKCWDLEYNKVIRHYHGHLSAVYGLDLHPTLDVLVTCSRDSTARIWDVRTKASVHTLSGHTNAVATVRCQAAEPQIITGSHDTTIRLWDLVAGKTRVTLTNHKKSVRAVVLHPLLYTFASGSPDNIKQWKFPDGGFIQNLSGHNAIINTLAVNADGVLVSGADNGTMHLWDWRTGYNFQRVHAAVQPGSLDSESGIFACAFDRSESRLLTAEADKTIKVYREDETATEETHPVSWKPEIIKRKRF",no binding,,binds
"TBLR1 (protein, UniProt Q8BHJ5 1-514) MSISSDEVNFLVYRYLQESGFSHSAFTFGIESHISQSNINGALVPPAALISIIQKGLQYVEAEVSINEDGTLFDGRPIESLSLIDAVMPDVVQTRQQAYRDKLAQQHAAAAAAAAAATNQQGSAKNGENTANGEENGAHTIANNHTDMMEVDGDVEIPSNKAVVLRGHESEVFICAWNPVSDLLASGSGDSTARIWNLSENSTSGPTQLVLRHCIREGGQDVPSNKDVTSLDWNSEGTLLATGSYDGFARIWTKDGNLASTLGQHKGPIFALKWNKKGNFILSAGVDKTTIIWDAHTGEAKQQFPFHSAPALDVDWQSNNTFASCSTDMCIHVCKLGQDRPIKTFQGHTNEVNAIKWDPTGNLLASCSDDMTLKIWSMKQDNCVHDLQAHNKEIYTIKWSPTGPGTNNPNANLMLASASFDSTVRLWDVDRGICIHTLTKHQEPVYSVAFSPDGRYLASGSFDKCVHIWNTQTGALVHSYRGTGGIFEVCWNAAGDKVGASASDGSVCVLDLRK",binds,no binding,binds

# More lines, now with the values ahead:
binding [1],binding [2],binding [3],Molecule
binds,binds,binds,ANAPC1 (from UniProt P53995 1-1944)
binds,binds,binds,RNF213 (from UniProt E9Q555 1-5148) (enzyme)
binds,no binding,binds,NCoR (nuclear receptor co-repressor) (from UniProt Q60974 1-2453)
